This is one part of the list.
system: T1, CTL2-GFP (C. trachomatis L2/434/Bu, GFP-expressing); design: species or system HeLa; Intracellular C. trachomatis growth in HeLa cells, bulk GFP fluorescence relative to DMSO; details: bulk GFP, single well; 28.5 h, 10 µM; inhibitor
T1 construct: L2/434/Bu, GFP-expressing

Structure (SMILES) | % of control remaining [%]
O=C(c1[nH]nc2c1CCCC2)N1CCn2cc(C(F)(F)F)nc2C1 [CBK283915] | 111.047
CCn1cc(S(=O)(=O)NC2(c3ccc(F)cc3)CC2)c(C)n1 [CBK282837] | 113.413
Cc1cccc(CNc2nccnc2-c2cccc(Cl)c2)c1 [CBK037527] | 136.293
O=C(Nc1ccc([C@@H](O)[C@H]2COCC(=O)N2Cc2ccc(F)cc2)cc1)c1cccnc1 [CBK289062] | 154.213
CC(=O)Oc1ccccc1C(=O)Oc1ccc2c(c1)c(C(C)=O)c(C)n2-c1ccccc1 [CBK263175] | 120.837
Cc1cc2nc(SCc3nc4ccccc4[nH]3)[nH]c2cc1C [CBK264233] | 127.779
CC(C)(CNC(=O)c1ccc(=O)n(CC(=O)NC2CCCCC2)c1)c1ccc(F)cc1 [CBK285984] | 113.247
Cc1cc(COc2nccnc2OC2CCN(CC(=O)Nc3c(C)cccc3C)CC2)no1 [CBK082958T] | 91.2262
Nc1cc(=O)[nH]c(SCC(=O)N2CCc3ccccc32)n1 [CBK307424] | 131.509
COc1cc2c(cc1OC)CN(C(=O)Cn1cc(C)c(=O)[nH]c1=O)CC2 [CBK122745] | 110.907
CN1CC(C(=O)N(C)Cc2nc(-c3ccccc3)no2)NC1=O (stereo not shown) [CBK306727] | 81.9251
Clc1ccc(-c2c[nH]cn2)cc1 [CBK027542] | 94.189
COc1cc([C@@H]2c3cc4c(cc3[C@H](O)[C@H]2C(=O)Nc2ccccc2)OCO4)cc(OC)c1OC [CBK200106] | 94.229
CCOC(=O)CCCNC(=O)N1CCCC(C(=O)N(CC)CC)C1 (stereo not shown) [CBK156158] | 129.373
CCCCC1CCC(C(=O)Nc2cc(C)c3c(=O)oc4ccccc4c3n2)CC1 (stereo not shown) [CBK291136] | 100.349
O=c1[nH]c2ccccc2nc1-c1cc(Br)ccc1NCc1ccccc1 [CBK088071] | 151.516
COC(=O)c1c(NC(=O)CC2SCC(C(=O)OC)NC2=O)sc2c1CCCC2 (stereo not shown) [CBK263834] | 96.5849
Cc1ccc(OCc2occc2C(=O)N2CCCn3cncc3C2)cc1 [CBK306618] | 84.3958
COC(=O)C1=COC(C)C2CN3CCC4(NC(=O)c5c4ccc(OC)c5OC)C3CC12 (stereo not shown) [CBK003303] | 112.733
CC(=O)Nc1ccc2c(CSc3nnc(-c4ccco4)n3C)cc(=O)oc2c1 [CBK297534] | 151.549
COCCOCC(=O)N1CCC2(C/C=C/C[C@H]3COCC[C@H]3NC(=O)CNC2=O)CC1 [CBK292170] | 100.217
Cc1ccc2c(c1)OC1(CCN(C(=O)c3c(-c4ccccc4)nc4ccccn34)CC1)CC2=O [CBK167871] | 131.634
Cc1ccc(S(=O)(=O)NC2(C(F)(F)F)NC(=O)N(c3ccc(F)c(Cl)c3)C2=O)cc1 (stereo not shown) [CBK267473] | 109.881
CC(=O)N1CCC[C@H]2NC(=O)CNC(=O)C3(C/C=C/C[C@H]21)CCN(C(=O)CCC(=O)O)CC3 [CBK292174] | 141.871
O=C(Nc1c(F)cc(F)cc1OC1CCNCC1)c1ccnc2ccccc12 [CBK050277T] | 109.841
Cc1nn(C)cc1S(=O)(=O)N1CCc2cc(Cl)ccc21 [CBK282802] | 96.4003
Cc1nonc1CNC(=O)C1CC2C=CC1C21CC1 (stereo not shown) [CBK281678] | 146.665

Already shown: entries from further up.
Structure (SMILES) | % of control remaining [%]
CC(=O)N1CCC[C@H]2NC(=O)CNC(=O)C3(C/C=C/C[C@H]21)CCN(C(=O)CCC(=O)O)CC3 [CBK292174] | 141.871
O=C(Nc1c(F)cc(F)cc1OC1CCNCC1)c1ccnc2ccccc12 [CBK050277T] | 109.841
Cc1nn(C)cc1S(=O)(=O)N1CCc2cc(Cl)ccc21 [CBK282802] | 96.4003

(more compounds)

Structure (SMILES) | % of control remaining [%]
CN(C)c1ccc(CC(=O)N2CCc3ccccc3C2)cc1 [CBK200340] | 182.727
CN1CCN(c2n[nH]c(N)n2)CC1 [CBK026743] | 158.807
Cc1ccc(N(CC(=O)O)S(=O)(=O)c2ccc(C)cc2)cc1 [CBK262409] | 120.231
Cc1cc(Br)ccc1S(=O)(=O)Nc1nc(-c2c(F)cccc2Cl)cs1 [CBK200026] | 72.648
O=C(NCc1n[nH]c(=S)n1-c1cccc(C(F)(F)F)c1)c1cccs1 [CBK067697] | 99.7641
Nc1nc2c(s1)c(O)nc(=O)n2Cc1ccccc1 [CBK291257] | 137.296
Oc1cccc(Sc2nc3ccccc3nc2N2CCCC2)c1 [CBK093753] | 139.513
Cc1nc(C)c(CNC(=O)NC2CCCN(c3ccn(C)n3)C2=O)s1 (stereo not shown) [CBK305457] | 95.0781
COc1ccc([C@H]2CN(Cc3ccccc3)C[C@@H]2NC(C)=O)cc1 [CBK282930] | 108.596
COc1ccc(C2(CN3CCC(NC(=O)C4CC4)CC3)CC2)cc1 [CBK285358] | 108.653
COC(=O)c1ccccc1NC(=O)CSc1nnnn1C [CBK267441] | 116.829
O=C(CSCC(=O)c1ccc(F)cc1)Nc1ccc2ccccc2c1 [CBK263264] | 100
CCn1c2ccccc2c2cc(/C=N/c3cc(S(=O)(=O)c4ccc(O)c(/N=C/c5ccc6c(c5)c5ccccc5n6CC)c4)ccc3O)ccc21 [CBK261229] | 61.8409
Cc1nc2[nH]c(=O)nc(N)c2nc1C [CBK025658] | 121.274
CCSC(SCC)c1ccnn1-c1ccccc1 [CBK019332] | 133.504
CCOC(=O)c1cnc(O/N=C(\N)c2ccc(C(C)(C)C)cc2)nc1C(F)(F)F [CBK022142] | 150.764
COC(=O)c1c(NC(=S)NCc2ccc(S(N)(=O)=O)cc2)sc2c1CCC2 [CBK266926] | 147.954
Cc1ccc(-n2c(C)c(C)c3c(NCCO)cnnc32)cc1 [CBK288162] | 53.4479
CCc1nc2ccc(C(=O)N3CCNC(=O)C3)cn2c1N(C)C(=O)COc1ccccc1 [CBK145871] | 184.485
CCOC(=O)CSc1nc(-c2ccc(C)cc2)cs1 [CBK007039] | 148.427
C=CCn1c(SCC(=O)Nc2ccccn2)nnc1-c1ccc(Br)cc1 [CBK022413] | 104.233
O=C(Cn1cnc2c(cnn2-c2ccccc2)c1=O)N1CCc2ccccc21 [CBK287529] | 145.622
Cc1cccc(-c2cc(C(=O)O)c(C)o2)c1 [CBK045855] | 120.642
Cc1ccc2oc([C@H]3CCN(Cc4ccc(C(=O)O)cc4)C3)nc2c1 [CBK289386] | 131.442
CCN(CC)S(=O)(=O)c1cc(C(=O)NC2CCCCC2)ccc1Br [CBK058354] | 155.771
CCCCc1ccc(NC(=S)NN2CCN(C)CC2)cc1 [CBK265741] | 148.963
Cn1cccc1C1(O)CCCC2CN(C(=O)c3ccco3)CC21 (stereo not shown) [CBK284509] | 101.766

Structure (SMILES) | % of control remaining [%]
COc1ccc(CN2CCN(C(=O)c3cccs3)CC2)cc1OC [CBK074410] | 120.219
COc1ccc(CC(=O)Nc2nnc(C)s2)cc1OC [CBK287359] | 78.2506
COc1cc2c(cc1CNS(=O)(=O)c1ccc3[nH]c(=O)[nH]c(=O)c3c1)CCC2 [CBK286396] | 110.652
C(#Cc1ccc(-c2cc[nH]n2)s1)c1ccccc1 [CBK023413] | 80.9892
COCCN1CC(CNC(=O)Nc2cc(NC(C)=O)ccc2F)CC1=O (stereo not shown) [CBK304398] | 140.482
O=C(CN1CCCC1)N1CCC(c2cccc(Cc3ccc(C(F)(F)F)cc3)n2)CC1 [CBK286215] | 107.783
CC(=O)Nc1cccc(-c2nccnc2NCC(c2cccnc2)N(C)C)c1 (stereo not shown) [CBK037998] | 173.345
CN1CCC(N(C)C(=O)NCC2COc3ccccc3O2)C1 (stereo not shown) [CBK155994] | 107.394
O=C1N=C(N2CCCCCC2)SC1CC(=O)N1CCCc2ccccc21 (stereo not shown) [CBK063336] | 110.025
CCOCC(=O)N(C)C(CO)c1cc(OC)ccc1Br (stereo not shown) [CBK304722] | 116.982
C[C@@H](Nc1nc(-c2cccc3cccnc23)cnc1N)c1ccccc1 [CBK063784] | 225.165
Cn1c2c(c3ccccc31)CCOC21CCN(Cc2ccc(OC(F)F)cc2)CC1 [CBK039975] | 105.617
c1ccc(C(CC2CCCCC2)NCc2cccnc2)cc1 (stereo not shown) [CBK073816] | 131.449
Cc1csc(CNCc2c(C)nn(C)c2N(C)C)n1 [CBK304804] | 112.107
Cc1nn(C)c(C)c1CN(C)C(=O)CCC1CCCO1 (stereo not shown) [CBK283078] | 143.9
O=C(O)CSC1=CC(=O)N(c2ccc(Br)cc2)C1=O [CBK287263] | 127.161
COCCN1CC2=C(C1=O)C(c1ccc(F)cc1)NC(=O)N2 (stereo not shown) [CBK249447] | 136.684
O=S(=O)(Nc1cccc2nsnc12)c1cccs1 [CBK017018] | 157.045
CS(=O)(=O)N1CCC(C(=O)NCCN2CCOCC2)CC1 [CBK270151] | 114.792
CCOc1ccc(N2C(=O)CC(N3CCN(c4ccccn4)CC3)C2=O)cc1 (stereo not shown) [CBK263285] | 103.21
CC(C)c1cc(C(=O)NCC2CCCN(C(C)C)C2)n(C)n1 (stereo not shown) [CBK282566] | 101.776
N[C@@H]1CCCN(C(=O)c2ccccc2)[C@H]1c1ccccc1F [CBK281405] | 75.5269
COc1nccnc1OC1CCN(CCCO)CC1 [CBK084254] | 154.595
O=S(=O)(Nc1cc(Cl)nc(Cl)c1)c1ccc(-c2cc(C(F)(F)F)on2)s1 [CBK062215] | 134.108
O=C(CN1C(=O)CCC1=O)Nc1nnc(-c2ccc3c(c2)CCCC3)o1 [CBK287427] | 162.15

— paper PMC12040169 (PLOS Biology, 2025)
